Assay results as given in publication PMC10646254.

Biological target: T1, FLAG-tagged ELK4 (wild type) (human) (UniProt P28324)
T1 sequence: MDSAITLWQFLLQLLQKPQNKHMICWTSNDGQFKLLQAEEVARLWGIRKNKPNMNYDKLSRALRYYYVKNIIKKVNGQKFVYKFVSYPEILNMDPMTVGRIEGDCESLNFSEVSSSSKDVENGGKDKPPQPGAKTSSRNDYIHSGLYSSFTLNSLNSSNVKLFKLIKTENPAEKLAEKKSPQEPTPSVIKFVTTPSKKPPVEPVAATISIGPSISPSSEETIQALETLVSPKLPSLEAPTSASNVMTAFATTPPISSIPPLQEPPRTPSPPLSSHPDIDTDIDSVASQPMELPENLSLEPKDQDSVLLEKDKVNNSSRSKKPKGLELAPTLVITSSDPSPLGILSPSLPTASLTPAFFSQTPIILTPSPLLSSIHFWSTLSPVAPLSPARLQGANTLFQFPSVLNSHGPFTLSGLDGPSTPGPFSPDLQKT
Test: co-IP; ELK4 with full-length SP1 or SP3 and their serial truncations (domain deletions); cell line not stated

binding	Substance
binds	SP1 with deletion of the D domain (domain or fragment)
binds	SP3 with loss of the zinc finger domain (domain or fragment)

Results are given in words; binding and its absence hold for the method and conditions named. Binding seen in cells or lysates may run through a third protein. Binding calls can cover weak binding; strength is not graded here. Sequences can lack the tags named with a protein.
